Some of the results follow. Repeats are few or missing, and single values can be far off.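 Imaging used 1,536-well plates; nuclei positive for cleaved PARP by antibody were divided by total DNA-stained nuclei to yield the apoptosis fraction. Doses for screening kept most cells viable, and cell lines differ markedly in resting and induced cleaved-PARP levels.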
Tests used:
Assay in all cases: cleaved PARP positive nuclei fraction relative to DMSO control; melanoma cells; higher = more apoptosis
Settings in all cases: library dose: low library concentration; 72 h
WM115 = system: WM115
WM1716 = system: WM1716
WM1745 = system: WM1745
WM3526 = system: WM3526
WM3619 = system: WM3619
WM451Lu = system: WM451Lu

Structure (SMILES)	cleaved PARP positive nuclei fraction (WM115) [%]	cleaved PARP positive nuclei fraction (WM1716) [%]	cleaved PARP positive nuclei fraction (WM1745) [%]	cleaved PARP positive nuclei fraction (WM3526) [%]	cleaved PARP positive nuclei fraction (WM3619) [%]	cleaved PARP positive nuclei fraction (WM451Lu) [%]
COc1cc([C@@H]2c3cc4c(cc3[C@@H](O[C@@H]3O[C@@H]5CO[C@@H](C)O[C@H]5[C@H](O)[C@H]3O)[C@H]3COC(=O)[C@H]23)OCO4)cc(OC)c1O [etoposide] + COc1ccc(-c2ccc3c(N4CCOCC4)nc(N4C[C@@H](C)O[C@@H](C)C4)nc3n2)cc1CO [KU0063794] (first compound 0.02 µM, partner dose 0.02 µM)	128	56.2	90.9	75.1	102	45.8
O=C(/C=C/c1cccnc1)NCCCCC1CCN(C(=O)c2ccccc2)CC1 + O=C(O)C(=O)Nc1sc2c(c1C(=O)O)CCNC2 [TCS401] (first compound 0.01 µM, partner dose 1.66667 µM)	75.1	78.5	94.2	149	107	78.6
Cc1ccc(Nc2nccc(N(C)c3ccc4c(C)n(C)nc4c3)n2)cc1S(N)(=O)=O [Pazopanib] + O=C(O)c1ccc(-c2c[nH]c3ncc(-c4ccccc4)cc23)cc1C1CCCC1 [GSK650394] (first compound 0.4 µM, partner dose 0.16 µM)	165	56.1	81.2	136	87	120
CC[C@]1(O)C[C@H]2CN(CCc3c([nH]c4ccccc34)[C@@](C(=O)OC)(c3cc4c(cc3OC)N(C=O)[C@H]3[C@@](O)(C(=O)OC)[C@H](OC(C)=O)[C@]5(CC)C=CCN6CC[C@]43[C@@H]65)C2)C1 [vincristine] + Cn1c(=O)n(-c2ccc(C(C)(C)C#N)cc2)c2c3cc(-c4cnc5ccccc5c4)ccc3ncc21 [NVP-BEZ235] (first compound 0.0001 µM, partner dose 0.004 µM)	1290	78.5	107	103	110	312
CC[C@]1(O)C[C@H]2CN(CCc3c([nH]c4ccccc34)[C@@](C(=O)OC)(c3cc4c(cc3OC)N(C=O)[C@H]3[C@@](O)(C(=O)OC)[C@H](OC(C)=O)[C@]5(CC)C=CCN6CC[C@]43[C@@H]65)C2)C1 [vincristine] + C[C@@H](N)c1ccc(C(=O)Nc2ccnc3[nH]ccc23)cc1 [RKI983] (first compound 0.0001 µM, partner dose 0.4 µM)	1230	3480	163	58.1	178	282
Cc1cn(-c2cc(NC(=O)c3ccc(C)c(Nc4nccc(-c5cccnc5)n4)c3)cc(C(F)(F)F)c2)cn1 [nilotinib] + CCN(CC)CCCCNc1ncc2cc(-c3cc(OC)cc(OC)c3)c(NC(=O)NC(C)(C)C)nc2n1 [PD173074] (first compound 0.2 µM, partner dose 0.1 µM)	102	67.8	97.2	28.3	72.8	121
O=c1[nH]nc(Sc2ncc([N+](=O)[O-])s2)n1-c1ccc2c(c1)OCCO2 + O=C(Nc1cccc(Cl)c1)Nc1ncc(CCNc2ncnc3ccsc23)s1 [SNS314] (first compound 0.2 µM, partner dose 0.0008 µM)	204	48.9	84	64.4	99.3	207
Cc1ccc(Nc2nccc(N(C)c3ccc4c(C)n(C)nc4c3)n2)cc1S(N)(=O)=O [Pazopanib] + NC(=O)c1ccc(N(C(N)=O)c2c(F)cccc2F)nc1-c1ccc(F)cc1F [VX702] (first compound 0.4 µM, partner dose 0.4 µM)	68.8	850	112	91.5	85.9	44.1
Cc1ccc(Nc2nccc(N(C)c3ccc4c(C)n(C)nc4c3)n2)cc1S(N)(=O)=O [Pazopanib] + CC1(C)NC(=O)N(c2ccc([N+](=O)[O-])c(C(F)(F)F)c2)C1=O [nilutamide] (first compound 0.4 µM, partner dose 1 µM)	91.4	68.1	320	161	93.5	53.3
O=C(/C=C/c1cccnc1)NCCCCC1CCN(C(=O)c2ccccc2)CC1 + O=C1NC(=O)/C(=C/c2ccc(-c3ccc(F)cc3O)o2)S1 [AS252424] (first compound 0.01 µM, partner dose 1 µM)	112	22.2	91	40.7	117	266
CCCCCCCCCCCCCCCCCCOP(=O)([O-])OC1CC[N+](C)(C)CC1 [Perifosine] + CCCCCCCCCCCC1=C(O)C(=O)C=C(O)C1=O [Embelin] (first compound 0.4 µM, partner dose 1.2 µM)	202	62.2	96.6	70.3	104	169
Cc1cc(Nc2cc(N3CCN(C)CC3)nc(Sc3ccc(NC(=O)C4CC4)cc3)n2)n[nH]1 [Tozasertib] + O=C(O)c1ccc(-c2c[nH]c3ncc(-c4ccccc4)cc23)cc1C1CCCC1 [GSK650394] (first compound 0.006 µM, partner dose 0.16 µM)	72.3	57.5	90.6	65.8	111	104
COc1cc([C@@H]2c3cc4c(cc3[C@@H](O[C@@H]3O[C@@H]5CO[C@@H](C)O[C@H]5[C@H](O)[C@H]3O)[C@H]3COC(=O)[C@H]23)OCO4)cc(OC)c1O [etoposide] + COC(=O)c1sccc1S(=O)(=O)Nc1ccc(Nc2ccccc2)cc1OC [GSK0660] (first compound 0.02 µM, partner dose 1 µM)	147	146	82.5	75.8	99.8	34.9
Cc1cn(-c2cc(NC(=O)c3ccc(C)c(Nc4nccc(-c5cccnc5)n4)c3)cc(C(F)(F)F)c2)cn1 [nilotinib] + O=C1NC(=O)/C(=C/c2ccc(-c3ccc(F)cc3O)o2)S1 [AS252424] (first compound 0.2 µM, partner dose 1 µM)	130	27.2	88.7	309	187	51.7
O=C(/C=C/c1cccnc1)NCCCCC1CCN(C(=O)c2ccccc2)CC1 + CN(C)S(=O)(=O)c1ccc2c(c1)/C(=C/c1cc3c([nH]1)CCCC3)C(=O)N2 [SU6656] (first compound 0.01 µM, partner dose 0.4 µM)	92	110	92.6	58.5	101	322
COc1cc([C@@H]2c3cc4c(cc3[C@@H](O[C@@H]3O[C@@H]5CO[C@@H](C)O[C@H]5[C@H](O)[C@H]3O)[C@H]3COC(=O)[C@H]23)OCO4)cc(OC)c1O [etoposide] + c1cc(-c2cnn3cc(-c4ccc(OCCN5CCCCC5)cc4)cnc23)ccn1 [Dorsomorphin] (first compound 0.02 µM, partner dose 0.4 µM)	41	186	112	134	98.7	165
O=C(/C=C/c1cccnc1)NCCCCC1CCN(C(=O)c2ccccc2)CC1 + CS(=O)(=O)CCNCc1ccc(-c2ccc3ncnc(Nc4ccc(OCc5cccc(F)c5)c(Cl)c4)c3c2)o1 [lapatinib] (first compound 0.01 µM, partner dose 0.8 µM)	126	66.2	74.6	45.5	202	117
O=c1[nH]nc(Sc2ncc([N+](=O)[O-])s2)n1-c1ccc2c(c1)OCCO2 + CO[C@H]1C[C@@H]2CC[C@@H](C)[C@@](O)(O2)C(=O)C(=O)N2CCCC[C@H]2C(=O)O[C@H]([C@H](C)C[C@@H]2CC[C@@H](OCCO)[C@H](OC)C2)CC(=O)[C@H](C)/C=C(\C)[C@@H](O)[C@@H](OC)C(=O)[C@H](C)C[C@H](C)/C=C/C=C/C=C/1C [everolimus] (first compound 0.2 µM, partner dose 0.02 µM)	175	50.3	109	183	145	142
O=C(/C=C/c1cccnc1)NCCCCC1CCN(C(=O)c2ccccc2)CC1 + COc1cc(N2CCC(N3CCN(C)CC3)CC2)ccc1Nc1ncc(Cl)c(Nc2ccccc2S(=O)(=O)C(C)C)n1 [NVP-TAE684] (first compound 0.01 µM, partner dose 0.08 µM)	61.5	45	116	94.1	93.5	31
N#CC[C@H](C1CCCC1)n1cc(-c2ncnc3[nH]ccc23)cn1 [ruxolitinib] + CNC(=O)c1cc(Oc2ccc(NC(=O)Nc3ccc(Cl)c(C(F)(F)F)c3)cc2)ccn1 [sorafenib] (first compound 1 µM, partner dose 0.4 µM)	91.4	324	88.9	80.4	76	31.4
CC[C@]1(O)C[C@H]2CN(CCc3c([nH]c4ccccc34)[C@@](C(=O)OC)(c3cc4c(cc3OC)N(C=O)[C@H]3[C@@](O)(C(=O)OC)[C@H](OC(C)=O)[C@]5(CC)C=CCN6CC[C@]43[C@@H]65)C2)C1 [vincristine] + Cc1nc(Nc2ncc(C(=O)Nc3c(C)cccc3Cl)s2)cc(N2CCN(CCO)CC2)n1 [dasatanib] (first compound 0.0001 µM, partner dose 0.004 µM)	2480	96.6	154	158	191	63.8
Cc1cn(-c2cc(NC(=O)c3ccc(C)c(Nc4nccc(-c5cccnc5)n4)c3)cc(C(F)(F)F)c2)cn1 [nilotinib] + COc1cc(Nc2ncc(F)c(Nc3ccc4c(n3)NC(=O)C(C)(C)O4)n2)cc(OC)c1OC [Tamatinib] (first compound 0.2 µM, partner dose 0.4 µM)	122	121	130	244	79.6	111
Cc1cc(Nc2cc(N3CCN(C)CC3)nc(Sc3ccc(NC(=O)C4CC4)cc3)n2)n[nH]1 [Tozasertib] + COc1cc2c(Oc3ccc4[nH]c(C)cc4c3F)ncnc2cc1OCCCN1CCCC1 [cediranib] (first compound 0.006 µM, partner dose 0.4 µM)	98.5	87.1	110	49.9	100	127
O=C(/C=C/c1cccnc1)NCCCCC1CCN(C(=O)c2ccccc2)CC1 + C=C(c1ccc(C(=O)O)cc1)c1cc2c(cc1C)C(C)(C)CCC2(C)C [Bexarotene] (first compound 0.01 µM, partner dose 2 µM)	73.4	41.4	89.6	121	148	197
Cc1cc(Nc2cc(N3CCN(C)CC3)nc(Sc3ccc(NC(=O)C4CC4)cc3)n2)n[nH]1 [Tozasertib] + CS(=O)(=O)c1ccc(C(=O)Nc2ccc(Cl)c(-c3ccccn3)c2)c(Cl)c1 [vismodegib] (first compound 0.006 µM, partner dose 1 µM)	164	66.3	116	56.9	92.7	55.5
O=c1[nH]nc(Sc2ncc([N+](=O)[O-])s2)n1-c1ccc2c(c1)OCCO2 + Cn1cc(/C=C2\C(=O)Nc3cccnc32)c2ccccc21 [GW441756] (first compound 0.2 µM, partner dose 0.4 µM)	99.5	43.9	185	49.7	104	47.8
Cc1cn(-c2cc(NC(=O)c3ccc(C)c(Nc4nccc(-c5cccnc5)n4)c3)cc(C(F)(F)F)c2)cn1 [nilotinib] + CCN(CC)CCNC(=O)c1c(C)[nH]c(/C=C2\C(=O)Nc3ccc(F)cc32)c1C [sunitinib] (first compound 0.2 µM, partner dose 0.4 µM)	78	79.6	102	99.6	66.8	55.8
COc1cc([C@@H]2c3cc4c(cc3[C@@H](O[C@@H]3O[C@@H]5CO[C@@H](C)O[C@H]5[C@H](O)[C@H]3O)[C@H]3COC(=O)[C@H]23)OCO4)cc(OC)c1O [etoposide] + Cn1cncc1[C@@](N)(c1ccc(Cl)cc1)c1ccc2c(c1)c(-c1cccc(Cl)c1)cc(=O)n2C [tipifarnib] (first compound 0.02 µM, partner dose 0.01 µM)	72.5	85.2	96	223	100	90.5
CC[C@]1(O)C[C@H]2CN(CCc3c([nH]c4ccccc34)[C@@](C(=O)OC)(c3cc4c(cc3OC)N(C=O)[C@H]3[C@@](O)(C(=O)OC)[C@H](OC(C)=O)[C@]5(CC)C=CCN6CC[C@]43[C@@H]65)C2)C1 [vincristine] + CCN(CC)CCNC(=O)c1c(C)[nH]c(/C=C2\C(=O)Nc3ccc(F)cc32)c1C [sunitinib] (first compound 0.0001 µM, partner dose 0.4 µM)	238	45.6	109	60.5	86.1	72.6

Exported comma-delimited: entries from further up
Structure (SMILES),cleaved PARP positive nuclei fraction (WM115) [%],cleaved PARP positive nuclei fraction (WM1716) [%],cleaved PARP positive nuclei fraction (WM1745) [%],cleaved PARP positive nuclei fraction (WM3526) [%],cleaved PARP positive nuclei fraction (WM3619) [%],cleaved PARP positive nuclei fraction (WM451Lu) [%]
"Cc1cn(-c2cc(NC(=O)c3ccc(C)c(Nc4nccc(-c5cccnc5)n4)c3)cc(C(F)(F)F)c2)cn1 [nilotinib] + COc1cc(Nc2ncc(F)c(Nc3ccc4c(n3)NC(=O)C(C)(C)O4)n2)cc(OC)c1OC [Tamatinib] (first compound 0.2 µM, partner dose 0.4 µM)",122,121,130,244,79.6,111
"Cc1cc(Nc2cc(N3CCN(C)CC3)nc(Sc3ccc(NC(=O)C4CC4)cc3)n2)n[nH]1 [Tozasertib] + COc1cc2c(Oc3ccc4[nH]c(C)cc4c3F)ncnc2cc1OCCCN1CCCC1 [cediranib] (first compound 0.006 µM, partner dose 0.4 µM)",98.5,87.1,110,49.9,100,127

Reference: the supplement of paper PMC4604168 (melanoma cell lines)
